{
  "sequences": {"note": "Chains of the proteins cited; added tags and fusions are not shown.", "UniProt Q9H0U4": "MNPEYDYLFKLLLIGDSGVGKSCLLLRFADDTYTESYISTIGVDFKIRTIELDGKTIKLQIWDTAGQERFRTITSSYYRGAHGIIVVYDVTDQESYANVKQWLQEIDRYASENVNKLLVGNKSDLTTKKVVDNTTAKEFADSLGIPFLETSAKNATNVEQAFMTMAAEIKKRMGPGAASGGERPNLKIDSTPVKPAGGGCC"},
  "source": "paper PMC8842248",
  "biological_target": "GST-RAB1B, nonprenylated (UniProt Q9H0U4)",
  "assay": "pull-down; 20 μg GST-RAB1B with 20 μg PDE6D on GST-resin, 20 mM Tris pH 7.5, 200 mM NaCl, 1 mM DTT, 5 mM MgCl2, room temperature 30 min, four washes, glutathione elution, western blot; both purified",
  "note": "These are yes or no findings as the source states them, for the method shown.",
  "data": [
    {"substance": "PDE6D (phosphodiesterase 6 delta), wild type, polyhistidine tag removed (from UniProt O43924 1-150)", "values": [
      {"measurement": "binding", "value": "no binding (tested: 20 μg of GST-RAB1B with 20 μg of PDE6D)"}
    ]}
  ]
}
